Data: PubChem BioAssay (Tox21)
Several values for one entry are separate records, joined by “and”; a condition that tells them apart may be missing. Equal values may be shown once. The shares of active, inactive and inconclusive entries below differ from those in the screen. For some assays here: Potencies of inconclusive entries are doubtful fits and often do not repeat. Activity calls are given as the source filed them. Unless noted, the call rests on the fitted dose curve.

By UniProt entry, the sequences of proteins in these tests, tags left out. Where a name states a change or a piece, a line headed by the entry shows the natural chain unless it says otherwise.
UniProt P28223, whole entry, looked up: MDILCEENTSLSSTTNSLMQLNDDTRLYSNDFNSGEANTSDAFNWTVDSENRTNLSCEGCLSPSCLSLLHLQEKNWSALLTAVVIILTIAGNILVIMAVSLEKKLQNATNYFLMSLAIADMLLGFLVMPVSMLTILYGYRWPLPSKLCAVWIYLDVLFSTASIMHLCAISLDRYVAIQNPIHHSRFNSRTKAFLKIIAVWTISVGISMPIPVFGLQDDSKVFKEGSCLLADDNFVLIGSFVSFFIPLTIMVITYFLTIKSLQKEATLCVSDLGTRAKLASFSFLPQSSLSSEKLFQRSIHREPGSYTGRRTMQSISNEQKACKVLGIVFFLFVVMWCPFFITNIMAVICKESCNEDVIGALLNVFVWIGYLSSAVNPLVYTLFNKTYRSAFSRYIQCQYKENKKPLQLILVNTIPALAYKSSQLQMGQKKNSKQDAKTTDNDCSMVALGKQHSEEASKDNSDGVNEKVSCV
UniProt P11229: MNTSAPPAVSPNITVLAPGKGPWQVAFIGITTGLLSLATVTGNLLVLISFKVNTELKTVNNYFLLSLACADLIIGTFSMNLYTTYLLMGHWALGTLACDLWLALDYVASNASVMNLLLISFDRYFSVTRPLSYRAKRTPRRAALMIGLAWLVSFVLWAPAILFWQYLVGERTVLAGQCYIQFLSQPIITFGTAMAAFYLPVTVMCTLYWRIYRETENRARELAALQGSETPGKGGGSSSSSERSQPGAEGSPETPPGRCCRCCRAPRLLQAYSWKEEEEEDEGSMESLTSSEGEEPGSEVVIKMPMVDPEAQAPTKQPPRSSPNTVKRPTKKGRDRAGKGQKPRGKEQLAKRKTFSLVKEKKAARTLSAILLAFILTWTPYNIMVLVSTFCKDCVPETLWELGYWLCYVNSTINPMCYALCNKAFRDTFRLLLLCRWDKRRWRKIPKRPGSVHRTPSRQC

tested on: not listed separately; assay: p53 small molecule agonists, cell-based qHTS assay: qHTS cell viability counter screen (AID 1963581); details: p53RE-bla HCT-116 viability, ATP luminescence, 16 h; series mostly up to 66 µM; further: nearly all actives have a fitted effect of over 45% in size
Method in brief: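 HCT-116 p53RE-bla cells, 4,000/well, plated 5 h before compound pin transfer; 16 h at 37 C; bla substrate 2 h RT; then CellTiter-Glo, 30 min RT, luminescence.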
On the % scale 0 is the no-effect control and ±100 the full control effect; potency means the concentration at half of the fitted maximal effect.

| SMILES | Potency |
| --- | --- |
| C=C1CCC2CC1C2(C)C (centres undefined) | inactive |
| COc1ccc2cc1Oc1ccc(cc1)C[C@H]1c3c(cc4c(c3Oc3cc5c(cc3OC)CCN(C)[C@@H]5C2)OCO4)CCN1C | inconclusive: 35.4 µM [rising, partial curve, poor fit] |
| Cc1ccc([N+](=O)[O-])cc1Cl | inactive |
| O=C(O)c1snc(Cl)c1Cl | inactive |
| O=S(=O)(Oc1ccc(Cl)cc1Cl)c1ccccc1 | inconclusive: 41.5 µM [rising, single point] |
| C[C@@H]1[C@H](O)[C@@H](C)/C=C/C=C\C=C\C=C\C=C\C=C\C=C\[C@H](O[C@@H]2O[C@H](C)[C@@H](O)[C@H](N)[C@@H]2O)C[C@@H]2O[C@](O)(C[C@@H](O)C[C@@H](O)[C@H](O)CC[C@@H](O)C[C@@H](O)CC(=O)O[C@H]1C)C[C@H](O)[C@H]2C(=O)O (stereo in doubt) | inactive |
| OC[C@H]1O[C@@H](Oc2ccc(O)cc2)[C@H](O)[C@@H](O)[C@@H]1O | inconclusive: 1.29 µM [cytotoxic, single point] |
| C=CC(C)(O)CCC=C(C)C (centres undefined) | inactive |
| O=C(O)c1cccc(Oc2ccccc2)c1 | inconclusive: 5.13 µM [cytotoxic, single point] |
| CC(C)Oc1ccccc1O | inconclusive: 18.2 µM [rising, single point] |
| O=C(O)c1cc(-c2ccccc2)nc2ccccc12 | inconclusive: 0.463 µM [cytotoxic, single point] |
| COc1ccc(-n2nc(C(F)F)cc2-c2ccc(S(C)=O)cc2)cc1 (centres undefined) | inactive |
| C/C=C/C(=O)O | inactive |
| O=C1c2c(O)cccc2Cc2cccc(O)c21 | inconclusive: 1.62 µM [cytotoxic, single point] |
| CN1CCN(N)CC1 | inconclusive: 0.0793 µM [rising, single point] |
| Nc1nc(-c2ccccc2)c(Br)c(=O)[nH]1 | inconclusive: 17.8 µM [rising, single point] |
| Nc1ccc(Oc2ccc(N)c(N)c2)cc1 | inconclusive: 0.289 µM [rising, partial curve] |
| O=C(O)c1ccc(S(=O)(=O)O)cc1C(=O)O | inactive |
| NC(N)=O | inactive |
| CCOC(=O)CC | inactive |
| OCCCCCCCCCCCCBr | inconclusive: 36.9 µM [rising, partial curve, poor fit] |
| CCCCCCC[N+](CC)(CC)CCCCc1ccc(Cl)cc1 | inactive |
| Nc1ccc(S(=O)(=O)O)cc1 | inconclusive: 51.6 µM [rising, single point] |

tested on: not listed separately; assay: p53 small molecule agonists, cell-based qHTS assay (AID 1963582; active means well fitted activation curve with a large enough effect in the signal ratio in the repeat runs, not every such curve was filed as active; inconclusive means weak or mixed curves; the % refers to the signal ratio); details: HCT-116 p53RE-bla reporter, beta-lactamase FRET ratio, 16 h; activation: at 66 µM (top of the series) unless noted
Method in brief: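 Reporter line: p53RE-bla. Pre-incubation 5 h, 37 C, 5% CO2; compound (DMSO, pin tool) 16 h, 37 C; B/G FRET substrate 2 h RT; fluorescence intensity read.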

| SMILES | activation | Potency |
| --- | --- | --- |
| CCN(CCO)CCCC(C)Nc1ccnc2cc(Cl)ccc12 (centres undefined) | inactive: 0.694% [at 5.99 µM] |  |
| N=C1N=C(N)c2ccccc21 |  | active: 36.3 µM |
| C/C(CC(C)C)=N\O |  | inactive |

target: 5-hydroxytryptamine receptor 2A (Homo sapiens) (UniProt P28223); assay: 5-hydroxytryptamine receptor 2A (HTR2A) small molecule antagonists, cell-based qHTS assay (AID 1963586); details: HTR2A-CHO cells, DOI-induced calcium flux, fluorescence; series mostly up to 61.5 µM; further: nearly all actives have a fitted effect of over 45% in size
Method in brief: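 Antagonist-mode intracellular calcium assay: DOI (4 nM) added after 5 min compound pre-incubation at room temperature to dye-loaded HTR2A-CHO cells. Fluorescence followed for 3 min, sampled every second.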

| SMILES | Potency |
| --- | --- |
| N[C@H](Cc1c[nH]c2ccccc12)C(=O)O | inconclusive: 23.1 µM [inhibitor, single point] |
| CCCCOC(=O)c1ccc(O)cc1 | inconclusive: 47.8 µM [inhibitor, single point] |
| Oc1cccc(Nc2ccccc2)c1 | inconclusive: 0.139 µM [inhibitor, single point] |
| O=S(=O)(Oc1ccc(Cl)cc1Cl)c1ccccc1 | inactive |
| O=C(O)c1cc(-c2ccccc2)nc2ccccc12 | inconclusive: 12 nM [inhibitor, full curve, poor fit] and inactive |
| O=C1c2c(O)cccc2Cc2cccc(O)c21 | inconclusive: 47.2 µM [inhibitor, single point] |
| O=C(O)c1ccc(S(=O)(=O)O)cc1C(=O)O | inconclusive: 29.9 µM [inhibitor, partial curve, poor fit] |

target: 5-hydroxytryptamine receptor 2A (Homo sapiens) (UniProt P28223); assay: 5-hydroxytryptamine receptor 2A (HTR2A) small molecule agonists, cell-based qHTS assay (AID 1963587); details: HTR2A-CHO cells, calcium flux fluorescence, agonist mode; series mostly up to 76.8 µM; further: nearly all actives have a fitted effect of over 30% in size
Method in brief: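 HTR2A-CHO cells, plated 18 h at 37 C/5% CO2, dye-loaded 1 h at 37 C; compounds in DMSO added by pin tool (agonist mode). Intracellular calcium flux read as kinetic fluorescence on FDSS over 2 min at 1 s intervals.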

| SMILES | Potency |
| --- | --- |
| CCCCOC(=O)c1ccc(O)cc1 | inactive |
| COc1ccc2cc1Oc1ccc(cc1)C[C@H]1c3c(cc4c(c3Oc3cc5c(cc3OC)CCN(C)[C@@H]5C2)OCO4)CCN1C | inconclusive: 26.8 µM [activator, partial curve, poor fit] |
| C/C=C/C(=O)O | inconclusive: 54.9 µM [activator, single point] |
| Nc1ccc(S(=O)(=O)O)cc1 | inactive |

target: Muscarinic acetylcholine receptor M1 (Homo sapiens) (UniProt P11229); assay: Cholinergic receptor muscarinic 1 (CHRM1) small molecule antagonists, cell-based qHTS assay (AID 1963588); details: CHRM1-CHO antagonist mode, calcium flux fluorescence; series mostly up to 61.5 µM; further: nearly all actives have a fitted effect of over 40% in size
Method in brief: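 CHRM1-CHO calcium-flux assay, antagonist mode. Cells were seeded 18 h, dye-loaded 1 h at 37 C and given compound for 5 min at RT, then acetylcholine was added at 50nM. FDSS fluorescence was read 3 min; 15 concentrations, three runs.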

| SMILES | Potency |
| --- | --- |
| COc1ccc2cc1Oc1ccc(cc1)C[C@H]1c3c(cc4c(c3Oc3cc5c(cc3OC)CCN(C)[C@@H]5C2)OCO4)CCN1C | active: 20.5 µM |
| OC[C@H]1O[C@@H](Oc2ccc(O)cc2)[C@H](O)[C@@H](O)[C@@H]1O | inconclusive: 47.2 µM [inhibitor, single point] |
| O=C(O)c1cc(-c2ccccc2)nc2ccccc12 | inactive |
| CCCCCCC[N+](CC)(CC)CCCCc1ccc(Cl)cc1 | inconclusive: 2.9 µM [inhibitor, full curve] |

tested on: not listed separately; assay: cAMP Responsive Elements (CRE) small molecule agonists, cell-based qHTS assay (AID 1963590); details: CRE-bla HEK293T, beta-lactamase FRET ratio, 3 h; activation: at 92.4 µM (top of the series) unless noted
Method in brief: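 HEK 293T CRE-bla, 2,000 cells/well, 18 h preincubation 37 C/5% CO2; cpds (DMSO) pinned, 3 h; LiveBLAzer B/G FRET substrate, 2 h RT.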

| SMILES | Potency |
| --- | --- |
| C=C[C@@H](C)CCC=C(C)C | inactive |
| O=C1Nc2ccccc2C1(c1ccc(O)cc1)c1ccc(O)cc1 | inconclusive: 34.4 µM |
| CCCCOC(=O)c1ccc(O)cc1 | inactive |
| Oc1cccc(Nc2ccccc2)c1 | inactive |
| CC(=O)CC(=O)Nc1ccc(S(=O)(=O)O)cc1 | inactive |
| Oc1c(Br)cc(Br)c2cccnc12 | inconclusive: 33.5 µM |
| C=C1CC[C@H](O)CC1=C/C=C1\CCC[C@]2(C)[C@@H]([C@H](C)/C=C/[C@H](C)C(C)C)CC[C@@H]12 | inconclusive: 48.1 µM [rising, partial curve] and inconclusive: 68.6 µM [rising, partial curve] |
| C=C1CCC2CC1C2(C)C (centres undefined) | inactive |
| COc1ccc2cc1Oc1ccc(cc1)C[C@H]1c3c(cc4c(c3Oc3cc5c(cc3OC)CCN(C)[C@@H]5C2)OCO4)CCN1C | inconclusive: 33.5 µM |
| O=S(=O)(Oc1ccc(Cl)cc1Cl)c1ccccc1 | inactive |
| C[C@@H]1[C@H](O)[C@@H](C)/C=C/C=C\C=C\C=C\C=C\C=C\C=C\[C@H](O[C@@H]2O[C@H](C)[C@@H](O)[C@H](N)[C@@H]2O)C[C@@H]2O[C@](O)(C[C@@H](O)C[C@@H](O)[C@H](O)CC[C@@H](O)C[C@@H](O)CC(=O)O[C@H]1C)C[C@H](O)[C@H]2C(=O)O (stereo in doubt) | inconclusive: 61.1 µM [fluorescent] |
| O=C(O)c1cccc(Oc2ccccc2)c1 | inconclusive: 24.3 µM [rising, full curve] |
| COc1ccc(-n2nc(C(F)F)cc2-c2ccc(S(C)=O)cc2)cc1 (centres undefined) | inconclusive: 30.6 µM [fluorescent, partial curve] |
| CN1CCN(N)CC1 | inactive |
| Nc1ccc(Oc2ccc(N)c(N)c2)cc1 | inactive |
| O=C(O)c1ccc(S(=O)(=O)O)cc1C(=O)O | inactive |
| OCCCCCCCCCCCCBr | inconclusive: 27.7 µM [rising, partial curve] |
| CCCCCCC[N+](CC)(CC)CCCCc1ccc(Cl)cc1 | inconclusive: 23.7 µM [rising, partial curve] |
